The values that follow come from PMC4783296, “Structural basis underlying CAC RNA recognition by the RRM domain of dimeric RNA-binding protein RBPMS”.

Sequences of proteins named here, by UniProt entry; tags and fusion partners are left off. A change or cut given only in a name is not applied to a line headed by its entry. Residues count along the entry.
RBPMS RRM (amino acids 11-114) (Q93062, residues 11-114): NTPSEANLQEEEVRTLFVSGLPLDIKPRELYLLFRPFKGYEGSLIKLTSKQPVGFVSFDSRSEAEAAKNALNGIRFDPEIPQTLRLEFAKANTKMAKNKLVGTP

The target in experiment [1] is RBPMS RRM (amino acids 11-114) (human) (UniProt Q93062). Description: SEC; gel filtration on Superdex 75, elution volumes read on the column calibration curve; buffer not stated; both purified. For orientation: SEC sorts molecules by how far they enter the pores of the column.
Experiment [2] concerns the target full-length RBPMS isoform A (ENSP00000318102) (human) (UniProt Q93062). The description is as above.

These are yes or no findings as the source states them, for the method shown. Some results given as binding are weak or reduced against the parent protein; the word gives no strength.

Regarding “RBPMS RRM (amino acids 11-114) (from UniProt Q93062 11-114) (domain or fragment)”, the binding entry in experiment [1] was “binds”.
Regarding “full-length RBPMS isoform A (ENSP00000318102) (from UniProt Q93062-1 1-196)”, in experiment [2], the binding entry is “binds”.
